# Measurements reported in PubChem BioAssay AID504764 (Drosophila RNAi Screening Center, 2011).
# Purpose: 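Knock-downs that raise or lower a Notch target reporter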 (primary screen)
# System: Drosophila Kc167 cells
# Reagent: long dsRNA against Drosophila genes
# Time to read-out: about 5 days (4 days dsRNA, then 24 h after transfection)
# Treatment: transfection of constitutively active membrane-tethered Notch lacking the extracellular domain, read 24 h later
# Measurement: 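Firefly luciferase from an E(spl)m3 reporter with active Notch, plus control-promoter and uninduced reporter wells for normalisation; unnormalised counts, duplicate wells a and b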
# Reading the numbers: induced reporter light, run 1, well a and induced reporter light, run 1, well b: higher = more light from the Notch target reporter with active Notch; control promoter light, run 1, well a and control promoter light, run 1, well b: higher = more light from the viral control promoter (cell number, transfection, viability); uninduced reporter light, run 1, well a: higher = more light from the Notch target reporter without active Notch
# Call rule: 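Hit if the duplicate-averaged log2 ratio of induced to control-promoter light gives a plate-wise z beyond ±2, or induced to uninduced beyond ±1.8; weak-control or discordant-duplicate wells dropped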
# Calls: active = modifier hit (raised or lowered Notch signal); inactive = not a hit
# In all, the deposit lists about 22,000 reagents; below is a random part of those with a known target gene and a result. Over the whole deposit, 403 (1.9%) were called active. 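Unnormalised raw counts per well; ratio z-scores behind the hit calls and whether each hit raises or lowers signal are not deposited.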 Not stated in the record: the amount of reagent.
Gene,DRSC id,"induced reporter light, run 1, well a","induced reporter light, run 1, well b","control promoter light, run 1, well a","control promoter light, run 1, well b","uninduced reporter light, run 1, well a",Call
MED27 (Mediator complex subunit 27),DRSC12205,72460,1.03e5,67505,62830,6910,inactive
Dbx,DRSC08270,97515,76595,1.05e5,91365,6045,inactive
Dbx,DRSC08271,1.26e5,1.03e5,1.51e5,1.41e5,6200,inactive
Dbx,DRSC08394,86885,1.26e5,1.80e5,1.60e5,9225,inactive
Dolk (Dolichol kinase),DRSC07143,45640,32650,40960,34510,4065,inactive
H15,DRSC03339,2.10e5,1.67e5,2.66e5,1.78e5,9840,active
CG6230,DRSC01989,2.17e5,2.13e5,2.21e5,2.14e5,15042,inactive
CG46385,DRSC06425,10590,11075,10475,8085,4750,inactive
CG46385,DRSC06557,1.78e5,1.99e5,2.89e5,2.40e5,16138,inactive
APC7 (Anaphase Promoting Complex subunit 7),DRSC17937,1.93e5,1.65e5,2.16e5,1.85e5,11665,inactive
Psn (Presenilin),DRSC11743,1.30e5,96435,90320,72980,7138,inactive
disp (dispatched),DRSC12376,75845,82410,72470,53790,6655,inactive
CG1307,DRSC12492,91885,1.18e5,69085,71365,7540,inactive
CG13954,DRSC06442,1.96e5,2.00e5,2.14e5,2.19e5,14965,inactive
CG12118,DRSC17813,2.07e5,2.08e5,2.36e5,2.45e5,14355,inactive
CG5339,DRSC04496,2.26e5,2.41e5,1.72e5,2.15e5,16680,inactive
CG10680,DRSC02093,45955,40245,46210,43115,2975,inactive
"Alg3 (ALG3, alpha-1,3- mannosyltransferase)",DRSC04700,1.99e5,1.59e5,1.47e5,1.69e5,14275,inactive
Gas41,DRSC03156,1.65e5,1.35e5,1.93e5,2.16e5,16055,inactive
wcd (wicked),DRSC07051,64055,61250,89650,92310,4560,inactive
CR11023 (pseudo),DRSC00302,1.34e5,1.24e5,1.05e5,59870,9025,inactive
CG8065,DRSC10959,1.74e5,1.73e5,2.97e5,2.36e5,13215,inactive
Mcad (Medium-chain acyl-CoA dehydrogenase),DRSC09871,90440,95230,63385,36120,10355,inactive
corn (cornetto),DRSC11021,92745,1.03e5,85090,34280,10920,inactive
corn (cornetto),DRSC21943,,,,,,inactive
CG12395,DRSC19453,97260,77175,92610,75110,8610,inactive
CG44085,DRSC02922,3960,5142,8035,7100,1980,inactive
CG12691,DRSC17880,1.61e5,1.64e5,2.69e5,2.61e5,11355,inactive
CG11436,DRSC17783,1.74e5,1.71e5,2.36e5,2.30e5,11825,inactive
CG14265,DRSC18591,97740,1.09e5,1.43e5,1.24e5,6790,inactive
fzr2 (fizzy-related 2),DRSC04280,2.21e5,2.18e5,1.68e5,1.81e5,13740,inactive
CG32214,DRSC09613,2.12e5,2.57e5,3.37e5,2.85e5,18130,inactive
mtsh (mitoshell),DRSC03070,1.41e5,1.69e5,92530,1.09e5,19505,inactive
CG44153,DRSC02228,2.09e5,2.18e5,2.04e5,1.59e5,14815,inactive
CG44153,DRSC02229,1.50e5,1.56e5,81440,97625,21755,inactive
CG44153,DRSC02902,1.20e5,1.38e5,90385,1.12e5,18585,inactive
CG44153,DRSC02903,1.28e5,1.48e5,89755,1.08e5,20000,inactive
Or67d (Odorant receptor 67d),DRSC10158,2.65e5,1.74e5,2.31e5,2.46e5,12765,inactive
RpS14b (Ribosomal protein S14b),DRSC18711,5500,4345,9290,8620,288,inactive
CG18011,DRSC06697,1.53e5,1.52e5,1.50e5,1.51e5,15175,inactive
CG18011,DRSC06706,2.25e5,2.32e5,2.08e5,2.49e5,16355,inactive
wrd (well-rounded),DRSC16337,18265,16200,15728,15310,4975,inactive
wrd (well-rounded),DRSC16344,1.98e5,1.94e5,1.51e5,1.54e5,11260,inactive
CG2790,DRSC04045,1.79e5,1.79e5,1.50e5,1.22e5,11660,inactive
CG1907,DRSC15399,2.30e5,2.07e5,2.58e5,2.58e5,13878,inactive
p23,DRSC15158,1.83e5,1.74e5,1.13e5,1.03e5,11180,inactive
CG6041,DRSC18396,1.63e5,1.56e5,3.01e5,2.97e5,9538,inactive
tara (taranis),DRSC17076,1.70e5,1.40e5,1.14e5,1.11e5,17705,inactive
CG1943,DRSC12576,79390,92670,99330,62530,6020,inactive
prtp (pretaporter),DRSC19804,1.95e5,1.70e5,2.06e5,1.92e5,12090,inactive

Sorted by “control promoter light, run 1, well b” (low to high): 3 of the entries above.
Gene,DRSC id,"induced reporter light, run 1, well a","induced reporter light, run 1, well b","control promoter light, run 1, well a","control promoter light, run 1, well b","uninduced reporter light, run 1, well a",Call
Mcad (Medium-chain acyl-CoA dehydrogenase),DRSC09871,90440,95230,63385,36120,10355,inactive
CR11023 (pseudo),DRSC00302,1.34e5,1.24e5,1.05e5,59870,9025,inactive
CG8065,DRSC10959,1.74e5,1.73e5,2.97e5,2.36e5,13215,inactive
